{"source": "patent US6875578B2", "about": "“System for cell-based screening” (priority 1997, dated 2005)", "system": "NF-κB", "test": "NF-κB immunolocalization in toxin treated 3T3 cells", "type": "cell-based", "excerpt": "For further studies, we characterized endogenous NF-κB activation by immunolocalization in toxin treated cells. The NF-κB antibodies used in this study were purchased from Santa Cruz Biotechnology, Inc. (Santa Cruz, Calif.), and secondary antibodies are from Molecular Probes (Eugene, Oreg.).\nFor the 3T3 and SNB19 cell types, we determined the effective concentrations that yield response levels of 50% of the maximum (EC50), expressed in units of mass per volume (ng/ml) and units of molarity. Based on molecular weights of 17 kD for both TNFα and IL-1α, the EC50 levels for these two compounds with 3T3 and SNB19 cell types are given in units of molarity in Table 1.\nFor these experiments, either 10 or 100 TNFα-treated 3T3 or SNB19 cells/well were tested. On the basis of the standard deviations measured for these samples, and by taking t-values for the student's t-test, we have estimated the minimum detectable doses for each case of cell type, compound, number of cells per well, and for different choices of how many wells are sampled per condition. The latter factor determines the number of degrees of freedom that are provided in the sample of data. […] If the false positive rate is relaxed to 20%, a concentration of approximately half that value can be detected (0.83 ng/ml). […]", "data": [{"substance": "tumor necrosis factor [TNFα]", "values": [{"measurement": "minimum detectable dose", "setting": "1% false negative and 1% false positive rates, 100 cells per well, 12 or 16 wells", "result": "~0.15", "unit": "ng/mL"}, {"measurement": "minimum detectable dose", "setting": "false positive rate relaxed to 20%", "result": "~0.83", "unit": "ng/mL"}]}]}
